Source: the supplement of paper PMC12823440, “Inhibitors supercharge kinase turnover through native proteolytic circuits” (Nature, 2025)
The other results are listed elsewhere or left out. Hit calls seldom repeat between salt and free forms of one compound.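 Kinases, fused to nanoluciferase, were expressed in K562 cells; luminescence was measured every 4 h from 2 to 18 h as percent of control (DMSO = 100%, positive control = 0%). A time point is decreased if signal falls significantly (2 sigma). Hits were called by the authors by a rule that is not shown; the count of time points alone does not decide it.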

Chains of the proteins cited; added tags and fusions are not shown. Lines headed by an entry give the natural chain unless they say otherwise; changes in a name come on top.
UniProt P31152, whole entry: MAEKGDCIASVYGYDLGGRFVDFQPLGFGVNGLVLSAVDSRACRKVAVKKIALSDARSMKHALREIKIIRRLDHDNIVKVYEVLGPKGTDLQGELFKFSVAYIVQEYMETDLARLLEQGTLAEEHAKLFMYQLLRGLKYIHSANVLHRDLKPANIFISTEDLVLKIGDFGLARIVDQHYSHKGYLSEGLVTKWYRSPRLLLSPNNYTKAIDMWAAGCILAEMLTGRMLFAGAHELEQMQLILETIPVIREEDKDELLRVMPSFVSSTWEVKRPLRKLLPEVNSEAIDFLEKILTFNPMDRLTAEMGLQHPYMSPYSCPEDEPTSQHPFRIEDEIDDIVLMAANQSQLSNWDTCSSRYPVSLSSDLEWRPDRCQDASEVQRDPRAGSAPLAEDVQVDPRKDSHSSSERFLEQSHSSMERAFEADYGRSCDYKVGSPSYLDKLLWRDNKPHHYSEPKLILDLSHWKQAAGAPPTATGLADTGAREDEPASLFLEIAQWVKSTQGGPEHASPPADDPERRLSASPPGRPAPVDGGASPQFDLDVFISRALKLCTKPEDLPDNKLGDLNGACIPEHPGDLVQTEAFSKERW
UniProt Q16620, whole entry, looked up: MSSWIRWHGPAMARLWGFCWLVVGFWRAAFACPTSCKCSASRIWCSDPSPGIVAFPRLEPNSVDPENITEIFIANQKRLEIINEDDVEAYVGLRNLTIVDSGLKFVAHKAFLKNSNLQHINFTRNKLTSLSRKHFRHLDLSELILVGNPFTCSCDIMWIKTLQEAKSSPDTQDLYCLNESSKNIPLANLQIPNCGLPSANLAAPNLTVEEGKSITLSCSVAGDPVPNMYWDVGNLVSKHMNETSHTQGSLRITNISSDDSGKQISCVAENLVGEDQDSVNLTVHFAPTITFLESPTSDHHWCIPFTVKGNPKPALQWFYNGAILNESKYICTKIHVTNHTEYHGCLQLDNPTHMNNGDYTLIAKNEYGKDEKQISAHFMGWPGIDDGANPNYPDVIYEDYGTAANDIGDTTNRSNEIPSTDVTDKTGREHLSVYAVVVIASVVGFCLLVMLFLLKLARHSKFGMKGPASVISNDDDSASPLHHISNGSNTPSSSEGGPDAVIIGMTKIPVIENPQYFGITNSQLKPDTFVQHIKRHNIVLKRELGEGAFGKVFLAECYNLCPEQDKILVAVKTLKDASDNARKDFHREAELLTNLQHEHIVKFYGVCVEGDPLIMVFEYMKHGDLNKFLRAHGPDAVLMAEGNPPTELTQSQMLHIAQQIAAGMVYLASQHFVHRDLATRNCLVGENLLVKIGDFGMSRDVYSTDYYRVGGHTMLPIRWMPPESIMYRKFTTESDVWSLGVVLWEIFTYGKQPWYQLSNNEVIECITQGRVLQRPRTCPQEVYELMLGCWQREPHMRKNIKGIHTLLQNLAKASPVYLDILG
UniProt Q16288, whole entry, looked up: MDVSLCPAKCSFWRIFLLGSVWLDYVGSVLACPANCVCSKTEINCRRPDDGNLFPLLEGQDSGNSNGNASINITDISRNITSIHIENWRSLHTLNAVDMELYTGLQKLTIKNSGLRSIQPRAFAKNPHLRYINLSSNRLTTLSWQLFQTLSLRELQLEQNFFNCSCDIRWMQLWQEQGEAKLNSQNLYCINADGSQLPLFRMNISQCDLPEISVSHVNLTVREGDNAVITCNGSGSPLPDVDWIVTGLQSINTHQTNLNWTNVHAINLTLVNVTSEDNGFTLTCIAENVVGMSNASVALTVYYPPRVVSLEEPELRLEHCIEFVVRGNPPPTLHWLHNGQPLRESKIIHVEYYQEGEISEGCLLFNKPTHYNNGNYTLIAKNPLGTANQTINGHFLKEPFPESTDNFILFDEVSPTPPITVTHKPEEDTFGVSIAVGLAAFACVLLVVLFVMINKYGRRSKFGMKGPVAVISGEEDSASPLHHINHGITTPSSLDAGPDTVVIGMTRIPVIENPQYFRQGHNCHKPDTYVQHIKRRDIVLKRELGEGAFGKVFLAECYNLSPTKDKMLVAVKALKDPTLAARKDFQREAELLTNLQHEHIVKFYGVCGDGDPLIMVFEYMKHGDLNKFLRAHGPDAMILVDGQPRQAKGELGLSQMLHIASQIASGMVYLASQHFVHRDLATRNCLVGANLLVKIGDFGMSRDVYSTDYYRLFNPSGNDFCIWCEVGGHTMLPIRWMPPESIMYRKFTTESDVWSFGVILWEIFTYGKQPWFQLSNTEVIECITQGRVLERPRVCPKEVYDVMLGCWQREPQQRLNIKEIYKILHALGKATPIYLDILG
UniProt Q96KB5: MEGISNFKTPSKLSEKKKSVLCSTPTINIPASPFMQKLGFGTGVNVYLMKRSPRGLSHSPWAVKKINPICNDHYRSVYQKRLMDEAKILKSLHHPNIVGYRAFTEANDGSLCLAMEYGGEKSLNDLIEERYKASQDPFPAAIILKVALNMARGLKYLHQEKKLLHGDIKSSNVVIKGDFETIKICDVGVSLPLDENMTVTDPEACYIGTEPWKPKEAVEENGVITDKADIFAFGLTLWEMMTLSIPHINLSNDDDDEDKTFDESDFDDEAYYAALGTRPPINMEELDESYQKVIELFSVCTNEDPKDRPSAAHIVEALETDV
UniProt P09619, whole entry: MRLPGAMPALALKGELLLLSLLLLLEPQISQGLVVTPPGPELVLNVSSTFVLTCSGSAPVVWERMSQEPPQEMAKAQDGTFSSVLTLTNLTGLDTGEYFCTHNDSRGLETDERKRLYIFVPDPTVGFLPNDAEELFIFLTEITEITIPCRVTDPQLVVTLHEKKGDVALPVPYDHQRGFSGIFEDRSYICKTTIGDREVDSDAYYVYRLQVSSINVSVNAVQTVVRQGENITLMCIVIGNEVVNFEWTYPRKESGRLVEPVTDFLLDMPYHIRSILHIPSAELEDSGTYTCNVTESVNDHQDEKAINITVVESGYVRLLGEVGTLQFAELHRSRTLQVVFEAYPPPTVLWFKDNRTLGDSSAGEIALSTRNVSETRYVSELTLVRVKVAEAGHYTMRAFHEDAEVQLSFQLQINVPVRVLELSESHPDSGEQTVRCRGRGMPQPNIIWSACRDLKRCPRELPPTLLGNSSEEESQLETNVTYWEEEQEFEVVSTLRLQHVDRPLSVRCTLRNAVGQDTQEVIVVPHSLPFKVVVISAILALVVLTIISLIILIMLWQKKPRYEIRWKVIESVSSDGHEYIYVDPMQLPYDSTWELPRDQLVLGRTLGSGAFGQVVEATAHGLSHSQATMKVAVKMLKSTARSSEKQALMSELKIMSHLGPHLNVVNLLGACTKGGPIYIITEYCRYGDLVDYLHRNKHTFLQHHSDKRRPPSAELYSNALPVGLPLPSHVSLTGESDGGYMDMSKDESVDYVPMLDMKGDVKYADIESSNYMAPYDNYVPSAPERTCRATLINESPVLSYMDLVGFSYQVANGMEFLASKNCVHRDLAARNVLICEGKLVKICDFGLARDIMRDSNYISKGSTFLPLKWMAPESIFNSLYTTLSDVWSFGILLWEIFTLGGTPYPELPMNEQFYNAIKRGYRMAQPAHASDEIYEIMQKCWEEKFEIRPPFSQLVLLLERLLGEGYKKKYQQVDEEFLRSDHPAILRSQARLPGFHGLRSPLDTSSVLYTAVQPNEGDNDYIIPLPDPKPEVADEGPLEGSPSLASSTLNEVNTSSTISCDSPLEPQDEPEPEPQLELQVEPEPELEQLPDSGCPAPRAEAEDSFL
UniProt P53350, whole entry: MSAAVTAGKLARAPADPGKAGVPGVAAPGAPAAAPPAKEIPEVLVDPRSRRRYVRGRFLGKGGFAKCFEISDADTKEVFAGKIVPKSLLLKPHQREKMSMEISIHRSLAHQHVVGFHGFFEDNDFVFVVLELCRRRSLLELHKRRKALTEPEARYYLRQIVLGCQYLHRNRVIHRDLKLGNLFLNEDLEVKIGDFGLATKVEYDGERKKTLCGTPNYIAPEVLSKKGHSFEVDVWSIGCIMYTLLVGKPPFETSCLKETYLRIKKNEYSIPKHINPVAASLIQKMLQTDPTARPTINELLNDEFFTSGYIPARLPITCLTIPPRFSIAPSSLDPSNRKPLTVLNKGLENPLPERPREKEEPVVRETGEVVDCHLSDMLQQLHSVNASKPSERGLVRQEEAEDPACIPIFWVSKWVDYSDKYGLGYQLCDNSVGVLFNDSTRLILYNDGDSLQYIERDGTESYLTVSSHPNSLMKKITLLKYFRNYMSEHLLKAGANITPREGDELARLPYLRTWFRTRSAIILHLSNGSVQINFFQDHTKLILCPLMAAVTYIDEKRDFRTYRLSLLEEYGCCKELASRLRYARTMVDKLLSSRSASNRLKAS
UniProt Q05397, whole entry, looked up: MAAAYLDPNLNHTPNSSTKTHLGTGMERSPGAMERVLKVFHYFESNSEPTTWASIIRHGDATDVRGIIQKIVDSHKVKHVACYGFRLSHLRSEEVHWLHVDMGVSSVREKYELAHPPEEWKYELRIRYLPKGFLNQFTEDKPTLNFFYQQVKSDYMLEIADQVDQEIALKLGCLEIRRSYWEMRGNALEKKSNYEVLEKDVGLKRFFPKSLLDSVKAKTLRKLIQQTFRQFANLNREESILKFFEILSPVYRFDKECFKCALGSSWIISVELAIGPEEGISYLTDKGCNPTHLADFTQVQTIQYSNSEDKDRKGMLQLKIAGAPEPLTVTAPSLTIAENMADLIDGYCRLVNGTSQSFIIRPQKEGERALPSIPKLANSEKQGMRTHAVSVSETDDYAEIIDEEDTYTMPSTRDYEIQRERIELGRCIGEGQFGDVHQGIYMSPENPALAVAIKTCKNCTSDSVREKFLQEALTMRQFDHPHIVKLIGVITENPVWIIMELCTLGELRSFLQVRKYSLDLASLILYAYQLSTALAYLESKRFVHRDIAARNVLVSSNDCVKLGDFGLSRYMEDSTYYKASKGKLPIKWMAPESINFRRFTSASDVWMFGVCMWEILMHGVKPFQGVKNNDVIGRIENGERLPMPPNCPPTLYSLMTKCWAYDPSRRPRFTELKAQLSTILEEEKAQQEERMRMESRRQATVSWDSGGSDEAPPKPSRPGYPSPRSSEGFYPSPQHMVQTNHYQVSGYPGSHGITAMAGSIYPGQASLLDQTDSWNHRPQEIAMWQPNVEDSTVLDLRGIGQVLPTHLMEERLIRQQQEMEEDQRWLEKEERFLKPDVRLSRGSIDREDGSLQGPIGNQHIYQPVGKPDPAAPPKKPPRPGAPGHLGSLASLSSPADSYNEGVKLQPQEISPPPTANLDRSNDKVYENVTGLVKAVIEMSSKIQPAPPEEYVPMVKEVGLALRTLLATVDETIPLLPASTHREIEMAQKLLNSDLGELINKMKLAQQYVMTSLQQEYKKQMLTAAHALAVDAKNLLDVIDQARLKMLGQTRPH
UniProt Q14289, whole entry, looked up: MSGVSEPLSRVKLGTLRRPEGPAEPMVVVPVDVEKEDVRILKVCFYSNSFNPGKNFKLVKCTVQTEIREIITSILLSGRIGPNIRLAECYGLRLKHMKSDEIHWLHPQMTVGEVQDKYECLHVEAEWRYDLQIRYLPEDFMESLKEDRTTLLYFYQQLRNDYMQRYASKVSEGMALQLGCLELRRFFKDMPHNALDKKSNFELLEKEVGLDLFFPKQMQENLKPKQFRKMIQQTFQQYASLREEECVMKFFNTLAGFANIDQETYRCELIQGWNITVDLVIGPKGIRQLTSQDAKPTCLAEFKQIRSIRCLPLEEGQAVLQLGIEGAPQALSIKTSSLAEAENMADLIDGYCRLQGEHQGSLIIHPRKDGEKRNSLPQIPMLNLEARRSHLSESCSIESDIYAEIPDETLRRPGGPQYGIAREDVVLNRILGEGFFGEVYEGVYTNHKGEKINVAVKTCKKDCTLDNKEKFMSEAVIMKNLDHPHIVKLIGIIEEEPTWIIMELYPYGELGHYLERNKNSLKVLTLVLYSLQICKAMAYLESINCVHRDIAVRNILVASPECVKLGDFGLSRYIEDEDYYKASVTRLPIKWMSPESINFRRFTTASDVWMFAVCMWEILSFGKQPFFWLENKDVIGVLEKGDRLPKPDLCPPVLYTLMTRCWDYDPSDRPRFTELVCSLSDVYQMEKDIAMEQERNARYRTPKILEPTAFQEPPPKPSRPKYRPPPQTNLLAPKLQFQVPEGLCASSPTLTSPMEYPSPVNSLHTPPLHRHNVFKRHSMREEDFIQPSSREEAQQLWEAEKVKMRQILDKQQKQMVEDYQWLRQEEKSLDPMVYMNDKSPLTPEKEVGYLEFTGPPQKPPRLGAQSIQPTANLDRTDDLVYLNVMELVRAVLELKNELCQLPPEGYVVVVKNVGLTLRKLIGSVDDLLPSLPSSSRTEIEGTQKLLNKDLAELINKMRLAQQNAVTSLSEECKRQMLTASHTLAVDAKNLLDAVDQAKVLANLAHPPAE

Key:
Experiment in all cases: kinase-Nluc reporter destabilization hit call (1 = scored as downregulated) (binary); higher = compound decreases kinase abundance
Conditions in all cases: K562; 2-18 h
MAPK1 = MAPK1 (UniProt P28482)
MAPK4 = MAPK4 (UniProt P31152)
MAPKAPK2 = MAPKAPK2 (UniProt P49137)
MKNK1 = MKNK1 (UniProt Q9BUB5)
NTRK2 = NTRK2 (UniProt Q16620)
NTRK3 = NTRK3 (UniProt Q16288)
PAK4 = PAK4 (UniProt O96013)
PBK = PBK (UniProt Q96KB5)
PDGFRB = PDGFRB (UniProt P09619)
PDK1 = PDK1 (UniProt Q15118)
PDPK1 = PDPK1 (UniProt O15530)
PIK4CA = PIK4CA (UniProt P42356)
PIK4CB = PIK4CB (UniProt Q9UBF8)
PLK1 = PLK1 (UniProt P53350)
PRKAA1 = PRKAA1 (UniProt Q13131)
PRKCA = PRKCA (UniProt P17252)
PTK2 = PTK2 (UniProt Q05397)
PTK2B = PTK2B (UniProt Q14289)
RAF1 = RAF1 (UniProt P04049)
[1] = target: RAF1_S257L (clone: RAF1_mut) (UniProt P04049)

Measured: kinase-Nluc reporter destabilization hit call

CCCn1cnc2c(NCc3ccccc3)nc(NC(CC)CO)nc21 (centres undefined) [Ca2+ channel agonist 1] (2.5 µM)
inactive: MAPK1 = 0 | MAPK4 = 0 | MAPKAPK2 = 0 | MKNK1 = 0 | NTRK2 = 0 | NTRK3 = 0 | PAK4 = 0 | PBK 0 | PDGFRB 0 | PDK1 = 0 | PDPK1 = 0 | PIK4CA 0 | PIK4CB 0 | PLK1 = 0 | PRKAA1 = 0 | PRKCA 0 | PTK2 = 0 | PTK2B 0 | RAF1 = 0 | [1] 0

Cc1ncc(-c2ccnc(Nc3ccc(S(C)(=O)=O)cc3)n2)n1C(C)C (2.5 µM)
inactive: MAPK1 = 0 | MAPK4 = 0 | MAPKAPK2 = 0 | MKNK1 = 0 | NTRK2 = 0 | NTRK3 = 0 | PAK4 = 0 | PBK 0 | PDGFRB 0 | PDK1 = 0 | PDPK1 = 0 | PIK4CA 0 | PIK4CB 0 | PLK1 = 0 | PRKAA1 = 0 | PRKCA 0 | PTK2 = 0 | PTK2B 0 | RAF1 = 0 | [1] 0

O=C(Nc1cc(C(F)(F)F)ccc1N1CCN(Cc2ccccn2)CC1)c1ccc(-c2ccncc2)o1 (10 µM)
inactive: MAPK1 = 0 | MAPK4 = 0 | MAPKAPK2 = 0 | MKNK1 = 0 | NTRK2 = 0 | NTRK3 = 0 | PAK4 = 0 | PBK 0 | PDGFRB 0 | PDK1 = 0 | PDPK1 = 0 | PIK4CA 0 | PIK4CB 0 | PLK1 = 0 | PRKAA1 = 0 | PRKCA 0 | PTK2 = 0 | PTK2B 0 | RAF1 = 0 | [1] 0

C=CC(=O)N1CCC[C@@H](n2nc(-c3ccc(Oc4ccccc4)cc3)c(C(N)=O)c2N)C1 [Btk inhibitor 2] (10 µM)
inactive: MAPK1 = 0 | MAPK4 = 0 | MAPKAPK2 = 0 | MKNK1 = 0 | NTRK2 = 0 | NTRK3 = 0 | PAK4 = 0 | PBK 0 | PDGFRB 0 | PDK1 = 0 | PDPK1 = 0 | PIK4CA 0 | PIK4CB 0 | PLK1 = 0 | PRKAA1 = 0 | PRKCA 0 | PTK2 = 0 | PTK2B 0 | RAF1 = 0 | [1] 0

CN1CCN(C(=O)c2ccc(-c3ccc4c(C=O)c(O)ccc4c3)s2)CC1 (2.5 µM)
inactive: MAPK1 = 0 | MAPK4 = 0 | MAPKAPK2 = 0 | MKNK1 = 0 | NTRK2 = 0 | NTRK3 = 0 | PAK4 = 0 | PBK 0 | PDGFRB 0 | PDK1 = 0 | PDPK1 = 0 | PIK4CA 0 | PIK4CB 0 | PLK1 = 0 | PRKAA1 = 0 | PRKCA 0 | PTK2 = 0 | PTK2B 0 | RAF1 = 0 | [1] 0

CCN(CC)CCCCNc1ncc2cc(-c3cc(OC)cc(OC)c3)c(NC(=O)NC(C)(C)C)nc2n1 (10 µM)
inactive: MAPK1 = 0 | MAPK4 = 0 | MAPKAPK2 = 0 | MKNK1 = 0 | NTRK2 = 0 | NTRK3 = 0 | PAK4 = 0 | PBK 0 | PDGFRB 0 | PDK1 = 0 | PDPK1 = 0 | PIK4CA 0 | PIK4CB 0 | PLK1 = 0 | PRKAA1 = 0 | PRKCA 0 | PTK2 = 0 | PTK2B 0 | RAF1 = 0 | [1] 0

CC(C)c1ccc2oc3nc(N)c(C(=O)O)cc3c(=O)c2c1 [Amlexanox] (10 µM)
inactive: MAPK1 = 0 | MAPK4 = 0 | MAPKAPK2 = 0 | MKNK1 = 0 | NTRK2 = 0 | NTRK3 = 0 | PAK4 = 0 | PBK 0 | PDGFRB 0 | PDK1 = 0 | PDPK1 = 0 | PIK4CA 0 | PIK4CB 0 | PLK1 = 0 | PRKAA1 = 0 | PRKCA 0 | PTK2 = 0 | PTK2B 0 | RAF1 = 0 | [1] 0

Cc1ccc(NC(=O)c2cccc(N(C)C)c2)cc1NC(=O)c1ccc(O)cc1 (10 µM)
inactive: MAPK1 = 0 | MAPK4 = 0 | MAPKAPK2 = 0 | MKNK1 = 0 | NTRK2 = 0 | NTRK3 = 0 | PAK4 = 0 | PBK 0 | PDGFRB 0 | PDK1 = 0 | PDPK1 = 0 | PIK4CA 0 | PIK4CB 0 | PLK1 = 0 | PRKAA1 = 0 | PRKCA 0 | PTK2 = 0 | PTK2B 0 | RAF1 = 0 | [1] 0

COc1ccc(F)c(F)c1C(=O)c1cnc(NC2CCN(S(C)(=O)=O)CC2)nc1N (2.5 µM)
active: [1] 1
inactive: MAPK1 = 0 | MAPK4 = 0 | MAPKAPK2 = 0 | MKNK1 = 0 | NTRK2 = 0 | NTRK3 = 0 | PAK4 = 0 | PBK 0 | PDGFRB 0 | PDK1 = 0 | PDPK1 = 0 | PIK4CA 0 | PIK4CB 0 | PLK1 = 0 | PRKAA1 = 0 | PRKCA 0 | PTK2 = 0 | PTK2B 0 | RAF1 = 0

CN1CCN(c2ccc(Nc3cc(-c4cccc(-n5ccc6cc(C7CC7)cc(F)c6c5=O)c4CO)cn(C)c3=O)nc2)CC1 (2.5 µM)
inactive: MAPK1 = 0 | MAPK4 = 0 | MAPKAPK2 = 0 | MKNK1 = 0 | NTRK2 = 0 | NTRK3 = 0 | PAK4 = 0 | PBK 0 | PDGFRB 0 | PDK1 = 0 | PDPK1 = 0 | PIK4CA 0 | PIK4CB 0 | PLK1 = 0 | PRKAA1 = 0 | PRKCA 0 | PTK2 = 0 | PTK2B 0 | RAF1 = 0 | [1] 0

N#C/C(=C\c1ccc(O)c(O)c1)C(=O)NCCCc1ccccc1 (10 µM)
active: [1] 1
inactive: MAPK1 = 0 | MAPK4 = 0 | MAPKAPK2 = 0 | MKNK1 = 0 | NTRK2 = 0 | NTRK3 = 0 | PAK4 = 0 | PBK 0 | PDGFRB 0 | PDK1 = 0 | PDPK1 = 0 | PIK4CA 0 | PIK4CB 0 | PLK1 = 0 | PRKAA1 = 0 | PRKCA 0 | PTK2 = 0 | PTK2B 0 | RAF1 = 0

COc1nccc(-c2c(-c3ccc(F)cc3)ncn2C2CCC(O)CC2)n1 (centres undefined) (10 µM)
inactive: MAPK1 = 0 | MAPK4 = 0 | MAPKAPK2 = 0 | MKNK1 = 0 | NTRK2 = 0 | NTRK3 = 0 | PAK4 = 0 | PBK 0 | PDGFRB 0 | PDK1 = 0 | PDPK1 = 0 | PIK4CA 0 | PIK4CB 0 | PLK1 = 0 | PRKAA1 = 0 | PRKCA 0 | PTK2 = 0 | RAF1 = 0 | [1] 0
